Measured values reported in publication PMC3084784.
No constants are given. Whether binding was seen depends on the method and setting.

Amino acid sequences for entries named in this document (tags omitted). Residues count along the entry.
UniProt Q8N423, residues 24-220: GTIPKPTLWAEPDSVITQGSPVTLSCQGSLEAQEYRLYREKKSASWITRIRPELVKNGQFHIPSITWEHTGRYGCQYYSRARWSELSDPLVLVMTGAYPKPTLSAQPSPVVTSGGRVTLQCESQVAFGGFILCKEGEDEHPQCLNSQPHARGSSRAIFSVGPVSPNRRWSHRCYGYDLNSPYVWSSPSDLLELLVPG

Target: LILRB2 D1D2 (human) (UniProt Q8N423)
Experiment: SEC; size exclusion chromatography of the refolded proteins (Superdex 75 10/300 GL) with 12% SDS-PAGE of the main fractions; both purified

With “LILRB2 D1D2 (from UniProt Q8N423 24-220) (domain or fragment)” the binding was “no binding”.
